Results taken from PubChem BioAssay AID1347076 (National Center for Advancing Translational Sciences (NCATS), 2019).
Among all 400,000 compounds or so, about 13,000 (3.2%) were called active. The shares of active, inactive and inconclusive entries below differ from those in the screen. The call rests on the fitted dose curve; in most records, active means well fitted cell-killing curve with a large enough effect; inconclusive means small, poorly fitted or top-dose-only effect, or effect the other way; inactive means flat fitted curve, though single readings scatter. Potencies beside an inconclusive call are fits to weak or partial responses and may not hold up.

Assay: qHTS assay for MDR1-selective chemotherapeutics: Primary screen using the drug-selected MDR subline cells KB-V1; further: nearly all actives have a fitted effect of over 60% in size
Settings: KB-V1 MDR cells viability, CellTiter-Glo, 72 h; activity change, negative = cytotoxicity: at 46.1 µM (top of the series)
How it was run: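 Following 72 h at 37 degrees C with compound, KB-V1 cell viability was read by CellTiter-Glo luminescence, medium being phenol-red-free DMEM plus 10% FBS; concentration-response parameters came from normalized, curve-fitted qHTS data.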
On the % scale 0 is the no-effect control and ±100 the full control effect; potency means the concentration at half of the fitted maximal effect.

Structure (SMILES) | Potency | activity change, negative = cytotoxicity
O=[N+]([O-])c1cccc(C2CC(c3ccccc3)=NN2c2ccccc2)c1 (stereo not given) | inconclusive: 14.6 µM [cytotoxic, single point] | –
COCCCNC(=O)c1cc(-c2cccnc2)nc2ccc(S(=O)(=O)N3CCCCCC3)cc12 | inactive | –
CSC[C@H](NC(=O)COc1cc2c(c3oc(=O)c(C)c(C)c13)CCC(C)(C)O2)C(=O)O | inconclusive: 29.1 µM [rising, single point] | –
Cc1ccc(S(=O)(=O)N2CCCC2C(=O)NCCc2ccccc2)cc1 (stereo not given) | inconclusive: 8.2 µM [cytotoxic, partial curve] | –
CC(C)c1nc(NCCO)c2nnn(Cc3ccccc3)c2n1 | inconclusive: 8.2 µM [cytotoxic, partial curve] | –
Brc1cccc(OCCCCN2CCCCC2)c1 | inactive | –
CC1=C(/C=C/C(C)=C/C=C/C(C)=C/CO)C(C)(C)CCC1 | inconclusive: 16.4 µM [rising, partial curve] | –
Cc1noc(C)c1S(=O)(=O)N1CCC(C(=O)N2CCC(N3CCCCC3)CC2)CC1 | inconclusive: 14.6 µM [rising, partial curve] | –
CCOC(=O)c1c(C)nc2c(c1-c1cc(OC)c(OC)c(OC)c1)C(=O)c1ccccc1-2 | inconclusive: 1.46 µM [cytotoxic, full curve] | –
Cc1cccc(OCC(=O)Nc2ccc(N3CCN(C(=O)c4ccco4)CC3)cc2)c1 | inconclusive: 18.4 µM [cytotoxic, single point] | –
O=C(NCCCN1CCCC1=O)c1cn(-c2ccccc2)nc1-c1ccccc1 | inconclusive: 11.6 µM [cytotoxic, partial curve] | –
CC(Sc1nccn1C)C(=O)Nc1ccccc1C#N (stereo not given) | inactive | –
NS(=O)(=O)c1ccc(CCNC(=O)c2ccc(-c3ccccc3)cc2)cc1 | inconclusive: 20.6 µM [rising, single point] | –
CCCCOc1cccc(OCC(=O)Nc2nc3ccccc3[nH]2)c1 | inconclusive: 29.1 µM [cytotoxic, single point] | –
CC(=O)C[C@H]1c2ccccc2S(=O)(=O)N1C1CCCCC1 | inconclusive: 10.3 µM [cytotoxic, partial curve] | –
CC(O)c1nc2ccccc2n1CC(=O)Nc1ccc(F)cc1Cl (stereo not given) | inconclusive: 20.6 µM [rising, single point] | –
O=C(Cn1c2[n+](c3ccc(C(F)(F)F)cc31)CCCCC2)Nc1ccc(Br)cc1 | inactive | –
CC1(C(=O)NS(=O)(=O)c2cccc(OC(F)F)c2)CCN1C(=O)C1CCCCC1 (stereo not given) | inactive | –
CCN(C(=O)c1ccc2c(SCC(=O)O)c3c(nc2c1)CCC3)c1cc(Cl)ccc1OC | inactive | –
CCN(CC)C(=O)c1sc2c(c1C)c(=O)n(-c1ccc(C)c(C)c1)c(=O)n2Cc1cc(=O)n2ccccc2n1 | inconclusive: 58 µM [rising, partial curve, poor fit] | –
COc1ccc(CC(=O)Nc2cc(S(=O)(=O)N3CCCC3)ccc2Cl)c(OC)c1 | inconclusive: 29.1 µM [cytotoxic, single point] | –
Cc1ccccc1-n1c(SCC(=O)Nc2ccccc2Cl)nc2n[nH]c(C)c2c1=N | inactive | –
COCOCCn1cc(CN2CCS(=O)(=O)N(Cc3ccc(-c4ccc(Cl)nc4)cc3)C(C(C)C)C2=O)nn1 (stereo not given) | inactive | –
CC(C)COc1cccc(-c2cc(C(=O)N/N=C/c3ccncc3)c3ccccc3n2)c1 | inconclusive: 20.6 µM [cytotoxic, single point] | –

Structure (SMILES) | Potency | activity change, negative = cytotoxicity
CCN(CC)C(=O)c1sc2c(c1C)c(=O)n(Cc1ccccc1)c(=O)n2Cc1ccccc1C | inconclusive: 16.4 µM [cytotoxic, single point] | –
CCOc1cccc(C2C(C(=O)c3ccc(C)o3)=C(O)C(=O)N2Cc2ccccc2)c1 (stereo not given) | active: 8.2 µM | –
CC(=O)c1cccc(NC(=O)Nc2sc3nc4n(c(=O)c3c2C)CCC(C)CC4)c1 (stereo not given) | inconclusive: 29.1 µM [rising, single point] | –
CC(C)[C@H](NS(=O)(=O)c1cccc(Cl)c1)C(=O)OCC(=O)NC(=O)CN1CCCC1=O | inconclusive: 9.2 µM [rising, partial curve, poor fit] | –
CCCN1CCC(=O)N([C@H](CSc2ccc(Br)cc2)c2ccccc2)CC1 | inactive | –
Cn1cc(SCC(=O)O)c2ccccc21 | inactive | –
COc1ccc(N2CCN(C(=O)CSc3nc(-c4ccc(C(C)C)cc4)no3)CC2)cc1 | inactive | –
O=[N+]([O-])c1ccc(S(=O)(=O)NN=Cc2ccc(Cl)c(Cl)c2)cc1 | inconclusive: 29.1 µM [rising, single point] | –
COc1ccc2oc3cc(C)[n+]([O-])c(-c4ccc(C)cc4)c3c2c1 | active: 5.8 µM | –
CCn1nc(C(=O)NNC(=O)c2ccccc2OCc2c(C)noc2C)c2ccccc2c1=O | inconclusive: 29.1 µM [cytotoxic, single point] | –
C=CCN(C(=O)c1csnn1)C(C(=O)NC1CCCC1)c1ccccc1 (stereo not given) | inactive | –
CSc1ncccc1C(=O)NC1CCCc2c1cnn2-c1ccc(C)c(C)c1 (stereo not given) | inconclusive: 2.59 µM [cytotoxic, full curve] | –
CCOc1ccc(NS(=O)(=O)CC23CCC(CC2=O)C3(C)C)cc1 (stereo not given) | active: 18.4 µM | –
CCn1c(NC(=O)c2cccs2)nc2ccccc21 | inconclusive: 20.6 µM [cytotoxic, single point] | –
O=C(Nc1cccnc1)c1cc2c(s1)-c1ccccc1OC2 | inactive | –
CC(C)=CC(=O)Nc1ccc(OCc2ccccc2)cc1 | inconclusive: 20.6 µM [cytotoxic, single point] | –
CC(C)CCNC(=O)c1cccc(C(=O)NCCC(C)C)c1 | inactive | –
CC1CC(C)CN(CCCOc2ccccc2[N+](=O)[O-])C1 (stereo not given) | inconclusive: 7.31 µM [cytotoxic, partial curve] | –
COc1ccc(-c2nc(SC(C)C(=O)NCC3CCCO3)n[nH]2)cc1 (stereo not given) | inactive | –
Cc1nc(-c2ccc(S(=O)(=O)Nc3cc(Cl)ccc3C)cc2)co1 | inconclusive: 16.4 µM [cytotoxic, single point] | –
O=C1NCC(c2ccccc2)C1C(=O)N/N=C\c1ccc(-c2cccc(Cl)c2Cl)o1 (stereo not given) | inactive | –
COc1ccc(-n2ncc3c2CC(C)(C)CC3NC(=O)c2oc(C)cc2C)cc1 (stereo not given) | – | inconclusive: -9.82%
Cc1ccc(S(=O)(=O)N2[C@@H](Cc3ccccc3)CO[C@H]2CC(=O)c2cccs2)cc1 | inconclusive: 6.51 µM [cytotoxic, partial curve, poor fit] | –
Cc1cccc(-c2cc(C(=O)Nc3sc(C)c(C)c3C(N)=O)c3ccccc3n2)c1 | inconclusive: 2.59 µM [cytotoxic, partial curve, poor fit] | –

One compound at a time, as listed above. Order of values: Potency | activity change, negative = cytotoxicity
CC(=O)C[C@H]1c2ccccc2S(=O)(=O)N1C1CCCCC1 is entered as inconclusive: 10.3 µM [cytotoxic, partial curve] | –
COCCCNC(=O)c1cc(-c2cccnc2)nc2ccc(S(=O)(=O)N3CCCCCC3)cc12 is entered as inactive | –

Further compounds

Structure (SMILES) | Potency | activity change, negative = cytotoxicity
O=S(=O)(c1ccc(Cl)cc1)N1CCCC1c1nc(-c2cccc(Cl)c2)no1 (stereo not given) | inactive | –
COc1ccccc1C(=O)NC1CCN(C(=O)Nc2ccc(F)cc2)CC1 | inconclusive: 18.4 µM [cytotoxic, single point] | –
COCCCN1C(=O)C(CC(=O)NC2CCCCC2)CC(C(=O)N(C)C)=C1C (stereo not given) | inactive | –
CCn1ncc(/C=C/C(=O)Nc2c(C)nn(Cc3ccc(Cl)cc3Cl)c2C)c1C | inactive | –
CCC(Sc1nc2c(sc3ccccc32)c(=O)n1CCc1ccc(OC)c(OC)c1)C(=O)N(CC)CC (stereo not given) | inactive | –
CNc1cccc(-c2ccccc2CO)n1 | inactive | –
C#CCOCCOCCOCCNc1nc(N2CCN(C(=O)CCCCCCCCCCNC(=O)Cn3cc(C[C@@H](C)O)nn3)CC2)nc(N2CCN(C(=O)CCCCCCCCCCNC(=O)[C@@H]([C@H](C)CC)n3cc(CCCCCN)nn3)CC2)n1 | inactive | –
Cc1cc(OCc2nn[nH]n2)c2c(-c3ccccc3)cc(=O)oc2c1 | – | inconclusive: 33.7%
Cc1cc(NC(=O)CN2C(=O)/C(=C/c3ccc(C(C)C)cc3)SC2=S)no1 | inactive | –
COc1ccc(Cl)cc1-n1cc(-c2ccccc2)nc1SCC(=O)Nc1ccc(C)cc1 | inactive | –
Cc1ccc(-c2csc(/C=C3\SC(C)C(=O)N3CC(=O)Nc3ccccc3F)n2)cc1 (stereo not given) | inconclusive: 29.1 µM [rising, single point] | –
COc1ccc([C@@H]2CC=C(C(=O)O)[C@H](c3ccccc3)N2S(=O)(=O)c2ccc(C)cc2)cc1OC | inactive | –
CC1(C)CC(=O)CC(=Nc2ccc(C(=O)O)cc2)C1 | inconclusive: 25.9 µM [rising, single point] | –
CCOc1ccc(NC(=O)c2ccc(NS(=O)(=O)c3cccs3)cc2)cc1 | inconclusive: 13 µM [cytotoxic, partial curve] | –
Cc1ccc([N+](=O)[O-])cc1CN1CCN(c2ncc(Cc3ccccc3)cn2)CC1 | inconclusive: 18.4 µM [cytotoxic, single point] | –
Cn1ccc2c(N3c4ccccc4CCc4ccccc43)cc3c(c21)C1CCC3O1 (stereo not given) | inconclusive: 18.4 µM [cytotoxic, single point] | –
Cc1sc2nc(CSc3nnc(Cc4cccs4)n3C3CCCCC3)[nH]c(=O)c2c1C | inactive | –
COCCn1c(-c2ccc(SC)cc2)nc2c1c(=O)[nH]c(=O)n2CC(C)C | inconclusive: 5.8 µM [cytotoxic, full curve] | –
Cc1ccc(Oc2nnc(-c3cccs3)c3ccccc23)cc1C | inconclusive: 32.6 µM [cytotoxic, single point] | –
CCn1ncc(Br)c1C(=O)Nc1ccn(C23CC4CC(CC(C4)C2)C3)n1 | inconclusive: 29.1 µM [cytotoxic, single point] | –
CCOC(=O)c1c(NC(=O)c2ccc(C)cc2)sc2c1CC(C)(C)OC2 | inactive | –
COC(=O)C1=C(C)N(C)C(=O)/C1=C\c1cccs1 | inconclusive: 14.6 µM [cytotoxic, partial curve] | –
